Results on three molecules are retold here after publication PMC8358012.

Sequences of proteins named here, by UniProt entry; tags and fusion partners are left off.
UniProt P10417: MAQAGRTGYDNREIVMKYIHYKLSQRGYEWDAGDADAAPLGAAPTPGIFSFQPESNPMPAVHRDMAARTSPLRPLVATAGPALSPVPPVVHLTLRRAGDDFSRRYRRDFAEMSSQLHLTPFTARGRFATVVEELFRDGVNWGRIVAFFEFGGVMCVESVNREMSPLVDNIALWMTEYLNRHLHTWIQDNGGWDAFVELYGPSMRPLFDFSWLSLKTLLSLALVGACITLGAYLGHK

Assay [1] addresses Bim (mouse (endogenous in FL-P and FL-D cells)) (UniProt O54918). The assay can be described thus: co-IP; FL-D cells (differentiated 14 d to early B cells), treated with DMSO, 1 µM ABT-737 or 3 µM S63845 in the presence of 20 µM z-VAD-fmk; lysis in 20 mM Tris-HCl, 150 mM NaCl, 10% glycerol, 1% Triton X-100; endogenous Bim precipitated with anti-Bim antibody (isotype control antibody alongside) and agarose G beads, 4 h at 4 °C; western blot of the eluate. A general note: Immunoblotting shows a protein as a band on a membrane.

The target is the same in assay [2]. The assay can be described thus: co-IP; wt FL-P cells (mouse LMPP), treated 4 h with DMSO, 1 µM ABT-737 or 3 µM S63845 plus 20 µM z-VAD-fmk; lysis in 20 mM Tris-HCl, 150 mM NaCl, 10% glycerol, 1% Triton X-100; endogenous Bim precipitated with anti-Bim antibody and agarose G beads, 4 h at 4 °C; western blot of the eluate.
Assay [3] has as its target T1, Bim (mouse (endogenous in FL-P and FL-D cells)), O54918.
T1 chain: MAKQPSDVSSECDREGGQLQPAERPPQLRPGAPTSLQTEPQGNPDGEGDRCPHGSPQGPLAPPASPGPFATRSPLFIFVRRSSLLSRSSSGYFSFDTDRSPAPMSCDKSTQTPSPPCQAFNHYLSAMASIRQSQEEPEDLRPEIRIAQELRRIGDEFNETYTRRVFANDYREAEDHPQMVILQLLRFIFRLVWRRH
Described as above. The note with it: remark: other sources report otherwise.

In assay [4] the target is T1, Bim (mouse (endogenous in FL-P and FL-D …)). The experiment in a line: co-IP; FL-D cells (differentiated 14 d to early B cells), treated with DMSO, 1 µM ABT-737 or 3 µM S63845 in the presence of 20 µM z-VAD-fmk; lysis in 20 mM Tris-HCl, 150 mM NaCl, 10% glycerol, 1% Triton X-100; endogenous Bim precipitated with anti-Bim antibody (isotype control antibody alongside) and agarose G beads, 4 h at 4 °C; western blot of the eluate. The note with it: remark: other sources report otherwise.

Results are given in words; binding and its absence hold for the method and conditions named. In cells and extracts the contact can be indirect. Some binding calls cover weakened binding; strength is not graded here.

Consider Bcl-2 (from UniProt P10417 1-236), for which the binding entry in assay [1] and in assay [2] was “binds” in each case.

B1: Bcl-XL, Q64373-1 1-233 (protein)
chain: MSQSNRELVVDFLSYKLSQKGYSWSQFSDVEENRTEAPEETEAERETPSAINGNPSWHLADSPAVNGATGHSSSLDAREVIPMAAVKQALREAGDEFELRYRRAFSDLTSQLHITPGTAYQSFEQVVNELFRDGVNWGRIVAFFSFGGALCVESVDKEMQVLVSRIASWMATYLNDHLEPWIQENGGWDTFVDLYGNNAAAESRKGQERFNRWFLTGMTVAGVVLLGSLFSRK
As for B1, the binding entry in assay [3] and in assay [4] was “binds” in each case.

B2: Mcl-1, P97287 1-331 (protein)
chain: MFGLRRNAVIGLNLYCGGASLGAGGGSPAGARLVAEEAKARREGGGEAALLPGARVVARPPPVGAEDPDVTASAERRLHKSPGLLAVPPEEMAASAAAAIVSPEEELDGCEPEAIGKRPAVLPLLERVSEAAKSSGADGSLPSTPPPPEEEEDDLYRQSLEIISRYLREQATGSKDSKPLGEAGAAGRRALETLRRVGDGVQRNHETAFQGMLRKLDIKNEGDVKSFSRVMVHVFKDGVTNWGRIVTLISFGAFVAKHLKSVNQESFIEPLAETITDVLVRTKRDWLVKQRGWDGFVEFFHVQDLEGGIRNVLLAFAGVAGVGAGLAYLIR
Regarding B2, the binding result in assay [3] and in assay [4] was “binds” in each case.
